No constants are given. Whether binding was seen depends on the method and setting. Some binding calls cover weakened binding; strength is not graded here.
Molecular target: MafG (UniProt O15525)
Experiment: EMSA with 293 nuclear extracts co-expressing NF-E2 and MafG, 32P-labelled NF-E2 site oligonucleotide

Chains of the proteins cited; added tags and fusions are not shown.
UniProt O15525: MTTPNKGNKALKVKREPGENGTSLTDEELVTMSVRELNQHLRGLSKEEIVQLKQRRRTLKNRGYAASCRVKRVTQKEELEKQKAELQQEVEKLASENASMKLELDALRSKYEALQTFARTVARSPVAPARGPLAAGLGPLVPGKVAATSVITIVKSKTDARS

- binding: binds
B1: wild-type transcription factor NF-E2 (Nuclear factor erythroid-2) (protein)
chain: MSPCPPQQSRNRVIQLSTSELGEMELTWQEIMSITELQGLNAPSEPSFEPQAPAPYLGPPPPTTYCPCSIHPDSGFPLPPPPYELPASTSHVPDPPYSYGNMAIPVSKPLSLSGLLSEPLQDPLALLDIGLPAGPPKPQEDPESDSGLSLNYSDAESLELEGTEAGRRRSEYVEMYPVEYPYSLMPNSLAHSNYTLPAAETPLALEPSSGPVRAKPTARGEAGSRDERRALAMKIPFPTDKIVNLPVDDFNELLARYPLTESQLALVRDIRRRGKNKVAAQNCRKRKLETIVQLERELERLTNERERLLRARGEADRTLEVMRQQLTELYRDIFQHLRDESGNSYSPEEYALQQAADGTIFLVPRGTKMEATD
